Results deposited as PubChem BioAssay AID1259254 (NCATS, 2017).

- Purpose: 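Finding genes that stop cells copying their DNA twice in one cycle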 (primary screen)
- System: human HCT116 colorectal cancer cells
- Reagents: single siRNA against human genes
- Duration: 3 days
- Detection: 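Nuclei stained with Hoechst and imaged; cell-cycle phase assigned by DNA content; G2 share scaled per plate, non-targeting siRNA 0%, GMNN siRNA 100%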
- Scale: G2 robust z-score and G2 cells, % of GMNN control: higher = more G2 cells, more excess DNA replication; raw share of cells in G2: higher = larger share of cells with G2 DNA content
- Active means: 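Active siRNAs have a G2 robust z of 5 or more median absolute deviations over the median, which in these data means about 38% or higher of GMNN control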
This is a random part of about 59,000 reagents. Over the whole deposit, about 1,550 (2.6%) got an active call. 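G2 share is only a proxy for re-replication; each gene was hit by three separate siRNAs, and active genes were retested.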 The raw values are shown without normalisation. Reagents against one gene are numbered here. Not stated in the record: the amount of reagent.

G2 robust z-score | G2 cells, % of GMNN control | raw share of cells in G2 (%) | Outcome | target | reagent no.
-0.333 | 0.627 | 3.83 | inactive | XAGE3 | 1
-0.0543 | 2.59 | 3.83 | inactive | XAGE3 | 2
0.166 | 4.13 | 4.07 | inactive | XAGE3 | 3
5.65 | 42.7 | 20 | active | KMO | 1
-1.35 | -6.53 | 1.57 | inactive | KMO | 2
-0.00141 | 2.96 | 6.3 | inactive | KMO | 3
0.908 | 9.35 | 7.7 | inactive | GDAP2 | 1
-0.899 | -3.36 | 2.51 | inactive | GDAP2 | 2
-1.37 | -6.69 | 2.92 | inactive | GDAP2 | 3
1.27 | 11.9 | 10 | inactive | JCHAIN | 1
-1.13 | -4.97 | 2.26 | inactive | JCHAIN | 2
-0.389 | 0.232 | 3.44 | inactive | JCHAIN | 3
2.46 | 20.3 | 11.5 | inactive | SETDB2 | 1
-0.594 | -1.21 | 4.93 | inactive | SETDB2 | 2
-0.471 | -0.343 | 4.66 | inactive | SETDB2 | 3
5.38 | 40.8 | 24.3 | active | NSD3 | 1
-0.0306 | 2.75 | 5.43 | inactive | NSD3 | 2
0.674 | 7.71 | 7.55 | inactive | NSD3 | 3
0.806 | 8.64 | 8.37 | inactive | DCTN3 | 1
2.63 | 21.4 | 13 | inactive | DCTN3 | 2
0.556 | 6.88 | 5.75 | inactive | DCTN3 | 3
1.57 | 14 | 7.91 | inactive | SYNPR | 1
5.17 | 39.4 | 16.8 | active | SYNPR | 2
5.34 | 40.5 | 17.7 | active | SYNPR | 3
0.456 | 6.17 | 5.82 | inactive | PHACTR1 | 1
0.849 | 8.94 | 6.19 | inactive | PHACTR1 | 2
-0.772 | -2.47 | 2.41 | inactive | PHACTR1 | 3

9 entries already listed, sorted by “G2 robust z-score”, low to high.
G2 robust z-score | G2 cells, % of GMNN control | raw share of cells in G2 (%) | Outcome | target | reagent no.
-1.37 | -6.69 | 2.92 | inactive | GDAP2 | 3
-1.35 | -6.53 | 1.57 | inactive | KMO | 2
-1.13 | -4.97 | 2.26 | inactive | JCHAIN | 2
-0.899 | -3.36 | 2.51 | inactive | GDAP2 | 2
-0.389 | 0.232 | 3.44 | inactive | JCHAIN | 3
-0.00141 | 2.96 | 6.3 | inactive | KMO | 3
0.908 | 9.35 | 7.7 | inactive | GDAP2 | 1
1.27 | 11.9 | 10 | inactive | JCHAIN | 1
5.65 | 42.7 | 20 | active | KMO | 1

Further reagents follow.
G2 robust z-score | G2 cells, % of GMNN control | raw share of cells in G2 (%) | Outcome | target | reagent no.
-0.838 | -2.93 | 3.93 | inactive | COL11A2 | 1
4.22 | 32.7 | 16.1 | inactive | COL11A2 | 2
0.378 | 5.63 | 5.73 | inactive | COL11A2 | 3
1.99 | 16.9 | 10.3 | inactive | TGIF2 | 1
0.109 | 3.74 | 7.19 | inactive | TGIF2 | 2
-0.708 | -2.01 | 3.49 | inactive | TGIF2 | 3
1.96 | 16.8 | 10.8 | inactive | NT5C3B | 1
-0.539 | -0.822 | 3.09 | inactive | NT5C3B | 2
-0.531 | -0.772 | 1.59 | inactive | NT5C3B | 3
8.07 | 59.7 | 29.1 | active | NDUFA8 | 1
-0.483 | -0.431 | 5.19 | inactive | NDUFA8 | 2
0.503 | 6.51 | 5.34 | inactive | NDUFA8 | 3
0.106 | 3.71 | 5.14 | inactive | COPE | 1
0.395 | 5.75 | 6.08 | inactive | COPE | 2
-0.71 | -2.03 | 5.56 | inactive | COPE | 3
-0.899 | -3.36 | 4.43 | inactive | CHPF2 | 1
-0.388 | 0.234 | 4.33 | inactive | CHPF2 | 2
0.81 | 8.66 | 7.12 | inactive | CHPF2 | 3
-1.07 | -4.56 | 2.56 | inactive | IL1R2 | 1
8.5 | 62.8 | 32.1 | active | IL1R2 | 2
-0.343 | 0.555 | 4.66 | inactive | IL1R2 | 3
-0.518 | -0.68 | 3.42 | inactive | PILRA | 1
-0.484 | -0.439 | 2.64 | inactive | PILRA | 2
-0.21 | 1.49 | 6.58 | inactive | PILRA | 3
3.8 | 29.7 | 14.9 | inactive | GLB1L | 1
0.506 | 6.53 | 8.35 | inactive | GLB1L | 2
-0.319 | 0.726 | 4.49 | inactive | GLB1L | 3
3.51 | 27.6 | 14.8 | inactive | CDC42 | 1
3.12 | 24.9 | 14.1 | inactive | CDC42 | 2
1.49 | 13.5 | 8.74 | inactive | CDC42 | 3
-0.366 | 0.395 | 5.51 | inactive | TOB1 | 1
0.17 | 4.16 | 5.68 | inactive | TOB1 | 2
0.619 | 7.33 | 6.07 | inactive | TOB1 | 3
2.38 | 19.7 | 12.7 | inactive | ARL4A | 1
-0.515 | -0.659 | 4.95 | inactive | ARL4A | 2
0.777 | 8.43 | 6.08 | inactive | ARL4A | 3
0.465 | 6.24 | 8.87 | inactive | COPZ1 | 1
2.19 | 18.3 | 10.3 | inactive | COPZ1 | 2
1.3 | 12.1 | 8.01 | inactive | COPZ1 | 3
1.24 | 11.7 | 8.13 | inactive | CEL | 1
-0.984 | -3.95 | 3.55 | inactive | CEL | 2
3.24 | 25.8 | 14.2 | inactive | CEL | 3
